In one experiment the target is MTG1-3xFLAG (human). Description: co-IP; anti-FLAG M2 affinity gel on mitochondrial lysate (1.6% Triton X-100) of HEK 293 EBNA cells expressing MTG1-3xFLAG; eluted with 3xFLAG peptide and pelleted; what came with the bait was identified by cryo-EM.
The target in experiment [1] is uL11m (human (endogenous in HEK 293 EBNA)). Description: cryo-EM structure; mt-LSU assembly intermediates affinity-purified through MTG1-3xFLAG from HEK 293 EBNA mitochondria; states A, B, C at 2.9, 3.1, 3.1 Å; 20 mM HEPES-KOH pH 7.6, 100 mM KCl, 20 mM MgCl2, 1 mM DTT.

No constants are given. Whether binding was seen depends on the method and setting. Binding calls can cover weak binding; strength is not graded here. For some of these results: Binding seen in cells or lysates may run through a third protein.

B1: MRM2 (enzyme, UniProt Q9UI43 19-246)
chain: TVGSRCKNRTGAEHLWLTRHLRDPFVKAAKVESYRCRSAFKLLEVNERHQILRPGLRVLDCGAAPGAWSQVAVQKVNAAGTDPSSPVGFVLGVDLLHIFPLEGATFLCPADVTDPRTSQRILEVLPGRRADVILSDMAPNATGFRDLDHDRLISLCLTLLSVTPDILQPGGTFLCKTWAGSQSRRLQRRLTEEFQNVRIIKPEASRKESSEVYFLATQYHGRKGTVKQ
Take B1: the binding result with MTG1-3xFLAG (human) was “binds”.

B2: MTERF4 (protein, UniProt Q7Z6M4 43-381)
chain: LTTASNGGVIEELSCVRSNNYVQEPECRRNLVQCLLEKQGTPVVQGSLELERVMSSLLDMGFSNAHINELLSVRRGASLQQLLDIISEFILLGLNPEPVCVVLKKSPQLLKLPIMQMRKRSSYLQKLGLGEGKLKRVLYCCPEIFTMRQQDINDTVRLLKEKCLFTVQQVTKILHSCPSVLREDLGQLEYKFQYAYFRMGIKHPDIVKSEYLQYSLTKIKQRHIYLERLGRYQTPDKKGQTQIPNPLLKDILRVSEAEFLARTACTSVEEFQVFKKLLAREEEESESSTSDDKRASLDEDEDDDDEEDNDEDDNDEDDDDEDDDEAEDNDEDEDDDEEE
Regarding B2, the binding result with MTG1-3xFLAG (human) was “binds”.

B3: MTG2 (enzyme, UniProt Q9H4K7 1-406)
chain: MAPARCFSARLRTVFQGVGHWALSTWAGLKPSRLLPQRASPRLLSVGRADLAKHQELPGKKLLSEKKLKRYFVDYRRVLVCGGNGGAGASCFHSEPRKEFGGPDGGDGGNGGHVILRVDQQVKSLSSVLSRYQGFSGEDGGSKNCFGRSGAVLYIRVPVGTLVKEGGRVVADLSCVGDEYIAALGGAGGKGNRFFLANNNRAPVTCTPGQPGQQRVLHLELKTVAHAGMVGFPNAGKSSLLRAISNARPAVASYPFTTLKPHVGIVHYEGHLQIAVADIPGIIRGAHQNRGLGSAFLRHIERCRFLLFVVDLSQPEPWTQVDDLKYELEMYEKGLSARPHAIVANKIDLPEAQANLSQLRDHLGQEVIVLSALTGENLEQLLLHLKVLYDAYAEAELGQGRQPLRW
For B3, the binding entry (with MTG1-3xFLAG (human); in experiment [1]) was “binds” in each case.

Values taken from article PMC8208988.
